Patent publication US20130216549A1
These are yes or no findings as the source states them, for the method shown.

Assays:
Experiment in all cases: capture ELISA: NI-0801 coated, NusA fusion protein titrated, detected with anti-NusA antibody, fluorescence
cyRantes (cynomolgus) = biological target: cyRantes (cynomolgus)
huMIPb (human) = biological target: huMIPb (human)
huRantes (human) = biological target: huRantes (human)
moRantes (mouse) = biological target: moRantes (mouse)
cyMIG (cynomolgus) = biological target: cyMIG (cynomolgus)
huMIPa (human) = biological target: huMIPa (human)

Measured: binding

B1: NI-0801 (IgG1-formatted) (antibody, V domains shown)
VH: QVQLVESGGGVVQPGRSLRLSCAASGFTFSNSGIHWVRQAPGKGLEWVAVISYDGSNKYYADSVKGRFTISRDNSKNTLYLQMNSLRAEDTAVYYCARLRDNAEYTDYWGQGTLVTVSS
VL: NFMLTQPHSVSESPGKTVTISCTGSGGSIASNYVQWYQQRPGSSPTTVIYEDNQRPSGVPDRFSGSIDSSSNSASLTISGLKTEDEADYYCQSYDPLPVWVFGGGTKLTVLG
no binding (tested: about 2.5e-7 M): all assays above
